Results deposited as PubChem BioAssay AID743121 (NCATS, 2013).
Shown is an unselected part of about 26,000 reagents tested. Of all reagents, 167 (0.63%) were called active. 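Calls are per gene from RSA p-values that are not deposited; an individual active-marked siRNA can sensitise only weakly.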 Entries without a mark were called inactive. Further read-outs or replicates are left out here.

Screen: 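Knock-downs that sensitise breast cancer cells to camptothecin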 (primary screen)
Cell system: MDA-MB-231 cells, a human breast cancer line
Reagent: single siRNA against human genes, 20 nM siRNA (0.8 pmol per well)
Duration: 120 h (drug added 48 h after transfection, read 72 h later)
Conditions: camptothecin 20 nM (about EC30) for 72 h; vehicle 0.1% DMSO in parallel plates
Detection: 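CellTiter-Glo ATP signal, scaled to control siRNA as percent viability; sensitisation given as log2 of untreated divided by camptothecin-treated viability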
Reading the numbers: log2 vehicle/camptothecin viability: higher = stronger sensitisation to camptothecin; viability with camptothecin: higher = more viable cells
Rule for the call: 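Each gene scored by redundant siRNA activity (RSA) over its individual siRNA ratios; a gene is called active at p < 0.001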

HCAR1 [SID164462916] scored log2 vehicle/camptothecin viability -0.176; viability with camptothecin (% of control) = 101.
HCAR1 [SID164462917] showed log2 vehicle/camptothecin viability -0.554; viability with camptothecin (% of control) = 86.1.
HCAR1 [SID164462918] scored log2 vehicle/camptothecin viability -0.264; viability with camptothecin (% of control) = 71.4.
After knock-down of HCAR1 [SID164462920] the results were log2 vehicle/camptothecin viability -0.271; viability with camptothecin (% of control) = 33.1.
After knock-down of FBXW11 [SID164447054], the record shows log2 vehicle/camptothecin viability -0.145; viability with camptothecin (% of control) = 96.3.
FBXW11 [SID164447055] scored log2 vehicle/camptothecin viability 0.0104; viability with camptothecin (% of control) = 76.2.
Against FBXW11 [SID164447057], the values are log2 vehicle/camptothecin viability -0.213; viability with camptothecin (% of control) = 112.
After knock-down of FBXW11 [SID164447058], the screen gave log2 vehicle/camptothecin viability -0.184; viability with camptothecin (% of control) = 102.
E2F3 [SID164362478] showed log2 vehicle/camptothecin viability -0.0676; viability with camptothecin (% of control) = 96.8.
Depletion of E2F3 [SID164362479] resulted in: log2 vehicle/camptothecin viability -0.0447; viability with camptothecin (% of control) = 91.9.
E2F3 [SID164362481] showed log2 vehicle/camptothecin viability 0.0531; viability with camptothecin (% of control) = 39.5.
E2F3 [SID164362483] showed log2 vehicle/camptothecin viability -0.0638; viability with camptothecin (% of control) = 93.3.
Against GRM2 [SID164367755], the entry reads log2 vehicle/camptothecin viability -0.319; viability with camptothecin (% of control) = 60.6.
With knock-down of GRM2 [SID164367757] the results were log2 vehicle/camptothecin viability -0.275; viability with camptothecin (% of control) = 71.4.
GRM2 [SID164367758] showed log2 vehicle/camptothecin viability -0.151; viability with camptothecin (% of control) = 73.8.
With knock-down of GRM2 [SID164367759] the results were log2 vehicle/camptothecin viability 0.131; viability with camptothecin (% of control) = 96.6.
NPHP1 [SID164378311] scored log2 vehicle/camptothecin viability -0.412; viability with camptothecin (% of control) = 74.5.
Knock-down of NPHP1 [SID164378316] resulted in: log2 vehicle/camptothecin viability -0.0378; viability with camptothecin (% of control) = 102.
Against NPHP1 [SID164378317], the entry reads log2 vehicle/camptothecin viability -0.236; viability with camptothecin (% of control) = 105.
Against NPHP1 [SID164378320] the deposit lists log2 vehicle/camptothecin viability -0.171; viability with camptothecin (% of control) = 80.7.
Knock-down of KRIT1 [SID164356880] came out at: log2 vehicle/camptothecin viability -0.251; viability with camptothecin (% of control) = 70.5.
For KRIT1 [SID164356881], the values are log2 vehicle/camptothecin viability -0.145; viability with camptothecin (% of control) = 104.
With knock-down of KRIT1 [SID164356883], the record shows log2 vehicle/camptothecin viability -0.159; viability with camptothecin (% of control) = 18.2.
Against MAF [SID164374533], the entry reads log2 vehicle/camptothecin viability -0.122; viability with camptothecin (% of control) = 79.3.
Knock-down of MAF [SID164374535] came out at: log2 vehicle/camptothecin viability -0.457; viability with camptothecin (% of control) = 75.8.
MAF [SID164374536] scored log2 vehicle/camptothecin viability -0.484; viability with camptothecin (% of control) = 107.

3 entries already listed, arranged by “log2 vehicle/camptothecin viability”, descending.
FBXW11 [SID164447055] → log2 vehicle/camptothecin viability = 0.0104; viability with camptothecin (% of control) = 76.2
FBXW11 [SID164447054] → log2 vehicle/camptothecin viability = -0.145; viability with camptothecin (% of control) = 96.3
HCAR1 [SID164462920] → log2 vehicle/camptothecin viability = -0.271; viability with camptothecin (% of control) = 33.1
